Results are given in words; binding and its absence hold for the method and conditions named. In cells and extracts the contact can be indirect. These calls come from enrichment with a bait or labelling near it, and not all partners need be listed.
Target: Flag-Lgals3 (UniProt P17931)
Test: affinity purification with mass spectrometry; whole-cell lysates immunoprecipitated with Flag antibodies; products analysed by mass spectrometry (IP-MS); cells not named

By UniProt entry, the sequences of proteins in these tests, tags left out.
UniProt P17931: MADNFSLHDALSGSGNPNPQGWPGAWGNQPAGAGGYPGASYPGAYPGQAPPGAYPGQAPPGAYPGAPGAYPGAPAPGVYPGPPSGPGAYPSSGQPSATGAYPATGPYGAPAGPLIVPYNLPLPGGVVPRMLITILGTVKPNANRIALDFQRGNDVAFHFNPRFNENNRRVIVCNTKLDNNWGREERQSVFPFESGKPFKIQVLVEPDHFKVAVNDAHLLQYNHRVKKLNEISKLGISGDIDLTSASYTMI
UniProt P14618: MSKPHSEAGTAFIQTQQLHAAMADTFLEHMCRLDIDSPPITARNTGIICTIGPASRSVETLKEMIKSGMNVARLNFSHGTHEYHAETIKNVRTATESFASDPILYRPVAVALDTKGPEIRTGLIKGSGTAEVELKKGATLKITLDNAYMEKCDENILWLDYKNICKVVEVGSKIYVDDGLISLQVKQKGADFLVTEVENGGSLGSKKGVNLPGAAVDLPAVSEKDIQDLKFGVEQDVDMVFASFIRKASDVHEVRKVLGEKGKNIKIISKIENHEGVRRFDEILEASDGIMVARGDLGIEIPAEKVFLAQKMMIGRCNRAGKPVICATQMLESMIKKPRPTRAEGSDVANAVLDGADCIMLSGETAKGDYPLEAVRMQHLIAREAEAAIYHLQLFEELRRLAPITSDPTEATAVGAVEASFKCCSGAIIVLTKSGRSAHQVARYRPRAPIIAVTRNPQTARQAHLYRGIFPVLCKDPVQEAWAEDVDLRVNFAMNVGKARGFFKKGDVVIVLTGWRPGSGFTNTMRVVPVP
UniProt P33527: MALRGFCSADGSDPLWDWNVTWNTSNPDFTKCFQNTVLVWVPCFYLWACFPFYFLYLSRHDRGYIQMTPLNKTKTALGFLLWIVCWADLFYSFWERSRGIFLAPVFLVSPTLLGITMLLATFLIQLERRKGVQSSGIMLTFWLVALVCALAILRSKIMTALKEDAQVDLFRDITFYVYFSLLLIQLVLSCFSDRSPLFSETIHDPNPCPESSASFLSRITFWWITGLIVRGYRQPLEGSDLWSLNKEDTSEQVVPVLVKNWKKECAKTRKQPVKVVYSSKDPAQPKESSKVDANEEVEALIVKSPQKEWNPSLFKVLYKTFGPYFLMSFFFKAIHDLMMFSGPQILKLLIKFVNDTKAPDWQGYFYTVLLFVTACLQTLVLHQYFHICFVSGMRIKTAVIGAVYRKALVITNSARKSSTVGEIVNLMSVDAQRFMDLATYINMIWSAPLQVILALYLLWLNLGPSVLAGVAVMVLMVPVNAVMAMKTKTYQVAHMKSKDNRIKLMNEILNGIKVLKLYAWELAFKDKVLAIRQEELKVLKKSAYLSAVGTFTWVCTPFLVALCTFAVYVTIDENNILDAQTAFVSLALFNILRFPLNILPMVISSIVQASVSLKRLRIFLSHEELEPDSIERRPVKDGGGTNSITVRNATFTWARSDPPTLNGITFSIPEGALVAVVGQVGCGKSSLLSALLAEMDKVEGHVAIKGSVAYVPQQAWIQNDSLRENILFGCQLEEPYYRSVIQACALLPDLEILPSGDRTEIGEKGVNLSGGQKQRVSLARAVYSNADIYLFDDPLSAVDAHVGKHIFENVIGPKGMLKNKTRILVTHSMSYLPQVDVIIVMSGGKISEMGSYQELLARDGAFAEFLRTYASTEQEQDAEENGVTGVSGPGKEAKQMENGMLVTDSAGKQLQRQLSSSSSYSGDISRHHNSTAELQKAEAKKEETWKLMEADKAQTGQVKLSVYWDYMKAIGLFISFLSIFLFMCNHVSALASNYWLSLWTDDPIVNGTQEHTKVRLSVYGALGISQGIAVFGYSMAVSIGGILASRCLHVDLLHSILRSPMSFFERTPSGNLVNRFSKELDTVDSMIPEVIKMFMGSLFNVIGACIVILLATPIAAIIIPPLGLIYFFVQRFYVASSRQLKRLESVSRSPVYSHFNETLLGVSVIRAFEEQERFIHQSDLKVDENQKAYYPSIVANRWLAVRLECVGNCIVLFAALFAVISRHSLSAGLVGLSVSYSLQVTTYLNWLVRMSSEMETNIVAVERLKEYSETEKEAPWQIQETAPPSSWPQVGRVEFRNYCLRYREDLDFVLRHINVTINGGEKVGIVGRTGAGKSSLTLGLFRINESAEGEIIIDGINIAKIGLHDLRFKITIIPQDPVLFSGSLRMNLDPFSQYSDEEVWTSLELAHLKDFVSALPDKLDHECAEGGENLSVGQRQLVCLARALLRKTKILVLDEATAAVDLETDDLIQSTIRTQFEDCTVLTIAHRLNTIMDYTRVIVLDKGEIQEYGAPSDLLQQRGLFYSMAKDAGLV

| binding | Substance |
| --- | --- |
| binds | PKM2 (found by IP-MS) (from UniProt P14618 1-531) (enzyme) |
| binds | ABCC1 (from UniProt P33527 1-1531) |

From paper PMC11947994
